In article PMC10766976 one finds binding data, which are given here for 2 substances.

By UniProt entry, the sequences of proteins in these tests, tags left out. Where a name states a change or a piece, a line headed by the entry shows the natural chain unless it says otherwise.
UniProt P37231: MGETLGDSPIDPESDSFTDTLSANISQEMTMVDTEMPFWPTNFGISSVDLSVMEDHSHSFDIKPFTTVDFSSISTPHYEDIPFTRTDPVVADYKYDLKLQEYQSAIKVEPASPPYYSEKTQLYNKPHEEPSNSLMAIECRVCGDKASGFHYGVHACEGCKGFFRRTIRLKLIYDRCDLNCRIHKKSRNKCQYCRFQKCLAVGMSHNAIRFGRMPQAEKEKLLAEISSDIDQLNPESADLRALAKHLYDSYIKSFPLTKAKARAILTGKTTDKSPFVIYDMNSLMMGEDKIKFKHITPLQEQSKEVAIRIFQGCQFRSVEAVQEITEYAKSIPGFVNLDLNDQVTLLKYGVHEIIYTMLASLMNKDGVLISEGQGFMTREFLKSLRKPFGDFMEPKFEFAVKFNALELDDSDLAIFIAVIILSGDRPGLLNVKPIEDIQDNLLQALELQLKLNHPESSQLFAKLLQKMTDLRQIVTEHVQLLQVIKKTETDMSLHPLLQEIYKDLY
UniProt Q9H5C8: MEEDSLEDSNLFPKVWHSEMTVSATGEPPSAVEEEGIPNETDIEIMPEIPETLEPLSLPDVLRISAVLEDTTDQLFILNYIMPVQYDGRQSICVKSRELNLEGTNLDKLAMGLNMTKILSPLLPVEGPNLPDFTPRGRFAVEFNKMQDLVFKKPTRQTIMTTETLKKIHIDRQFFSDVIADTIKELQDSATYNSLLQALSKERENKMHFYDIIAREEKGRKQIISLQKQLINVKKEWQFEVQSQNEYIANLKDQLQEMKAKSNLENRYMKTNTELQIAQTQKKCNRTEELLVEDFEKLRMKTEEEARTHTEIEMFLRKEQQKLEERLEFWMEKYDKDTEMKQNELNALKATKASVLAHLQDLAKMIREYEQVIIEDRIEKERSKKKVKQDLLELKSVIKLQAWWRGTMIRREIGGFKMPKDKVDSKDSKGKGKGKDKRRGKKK
UniProt P13645: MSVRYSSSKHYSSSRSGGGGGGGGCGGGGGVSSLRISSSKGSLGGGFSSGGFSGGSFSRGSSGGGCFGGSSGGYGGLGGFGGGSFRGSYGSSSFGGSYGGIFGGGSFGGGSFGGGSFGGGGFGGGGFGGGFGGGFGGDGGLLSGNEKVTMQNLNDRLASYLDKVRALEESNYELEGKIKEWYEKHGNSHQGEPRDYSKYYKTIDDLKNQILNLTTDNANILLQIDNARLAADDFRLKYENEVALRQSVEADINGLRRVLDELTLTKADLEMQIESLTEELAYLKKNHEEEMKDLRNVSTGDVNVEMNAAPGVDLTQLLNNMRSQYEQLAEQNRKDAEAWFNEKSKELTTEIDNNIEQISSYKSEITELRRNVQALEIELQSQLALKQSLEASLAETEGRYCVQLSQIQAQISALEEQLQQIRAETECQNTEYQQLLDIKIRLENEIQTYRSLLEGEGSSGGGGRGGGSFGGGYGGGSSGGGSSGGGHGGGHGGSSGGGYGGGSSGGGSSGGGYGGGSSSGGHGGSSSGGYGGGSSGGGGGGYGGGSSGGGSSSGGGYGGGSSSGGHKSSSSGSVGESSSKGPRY

The test has as its target Peroxisome proliferator-activated receptor-gamma (PPARγ) (human (endogenous in SW480)) (UniProt P37231). Briefly: affinity purification with mass spectrometry; IP with PPARγ Ab or IgG (bead control) from cytosolic lysates of SW480 cells in detergent-free hypotonic lysis buffer (20 mM Tris-HCl pH 7.4, 2 mM EGTA, 2 mM MgCl2, protease inhibitors, 5 mM Na3VO4, 1 mM DTT); SDS-PAGE, silver staining, bands cut and sequenced by MS.

Results are given in words; binding and its absence hold for the method and conditions named. Binding seen in cells or lysates may run through a third protein. Here binding means that the protein was enriched with, or labelled near, the bait; the list need not be complete.

Regarding “cytoplasmic IQ domain-containing protein G / dynein regulatory complex subunit 9 (from UniProt Q9H5C8)”, the binding result is “binds”. The result for “keratin type I cytoskeletal 10 (from UniProt P13645 1-584)” reads “binds”.
